Measured values published in PMC7069968, “Cholesteryl α-D-glucoside 6-acyltransferase enhances the adhesion of Helicobacter pylori to gastric epithelium” (Communications Biology, 2020).

Biological target: T1, cholesteryl α-D-glucopyranoside 6′-acyltransferase (CGAT) (Helicobacter pylori, UniProt O25241)
T1 construct: gene HP_0499
Test: biochemical

CCCCc1oc2ccccc2c1C(=O)c1cc(I)c(OCCN(CC)CC)c(I)c1 [amiodarone]
IC50: 13.8 µM
